Measured values published in patent US12102644B2, “Compounds and methods of promoting myelination” (Case Western Reserve University, priority 2019, dated 2024).
Some entries share one result that the patent states for a list of compounds. At least one structure is not confirmed: it was looked up by name or label, or the drawing left a doubt.

Tested on: mouse epiblast stem cell-derived OPCs
Experiment: In vitro OPC differentiation assay (percentage of MBP+ oligodendrocytes, high-content imaging)
Assay type: cell-based
Details: 72 h
Description: To rigorously assess effects of small molecule and genetic treatments on OPCs, all treatments were assayed in two batches of epiblast stem cell-derived OPCs, and key results were confirmed using mouse primary OPCs. OPCs were generated from two separate EpiSC lines, EpiSC5 (giving rise to OPC-5 OPCs) and 12901 (giving rise to OPC-1 OPCs). EpiSC-derived OPCs were obtained using in vitro differentiation protocols and culture conditions described previously. To ensure uniformity throughout all in vitro screening experiments, EpiSC-derived OPCs were sorted to purity by fluorescence activated cell sorting at passage five with conjugated CD 140a-APC (eBioscience, 17-1401; 1:80) and NG2-AF488 (Millipore, AB[…]; 1:100) antibodies. Sorted batches of OPCs were expanded and frozen down in aliquots. […] Plates were imaged on the Operetta High Content Imaging and Analysis system (PerkinElmer) and a set of 6 fields captured from each well resulting in an average of 1200 cells being scored per well. […] Each traced nucleus region was then expanded by 50% and cross-referenced with the […] (MBP) stain to identify oligodendrocyte nuclei, and from this the percentage of oligodendrocytes was calculated. In some experiments, the total process length of MBP^+ oligodendrocytes was calculated as previously described.

Structure (SMILES)	dose effective for enhancing oligodendrocyte formation
COc1ccc(S(=O)(=O)N2CCC(N3CCC(C)CC3)CC2)cc1 [TASIN-1]	below 100 nM
CCC(C)(C)c1ccc(CC(C)CN2C[C@@H](C)O[C@@H](C)C2)cc1 (some centres unmarked) [amorolfine, Amorolfine]	below 100 nM
